Experimental data taken from PubChem BioAssay AID2685 (National Center for Advancing Translational Sciences (NCATS), 2010).
The other results are listed elsewhere or left out. Further columns of the screen follow, without active or inactive calls. The list favours compounds with an active or inconclusive main result. Potencies come from curve fits of mixed quality, noted in brackets.

Assay: qHTS Assay for Lipid Storage Modulators in Drosophila S3 Cells;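 as to cell number change: cells counted by Cell Tracker Red CMTPX staining in the red channel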
Conditions: BODIPY lipid droplet fluorescence, 18-24 h; for cell number change: measured here: cell count max response, cells fed with added oleic acid
Method in brief: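 Drosophila S3 cells got compounds at several concentrations plus oleic acid (400 uM solution). Laser-scanning cytometry with 488 nm excitation read lipid droplets at 500-530 nm and cells at 575-640 nm. Percent activity was relative to 20 uM Triacsin C.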

[1] = measured here: lipid fluorescence (Fed channel) AC50, cells fed with added oleic acid
[2] = measured here: cell number channel AC50, cells fed with added oleic acid

Row | SMILES | AC50 [1] | cell number change [%] | AC50 [2]
1 | CCC(c1nnc(SCC(=O)Nc2ccc(C(=O)Nc3ccccc3OC)cc2)o1)N(C)C (centres undefined) | 0.13 µM [rising, full curve, poor fit] | – | –
2 | CN1CCCN(C(=O)c2ccc(Cl)cc2)CC1 | 6.51 µM [rising, single point] | -0.275 | –
3 | Cc1ccc(NC(=O)c2nc[nH]c2C(=O)N2CCN(c3ccccc3)CC2)cc1 | 16.4 µM [rising, partial curve] | 14.3 | –
4 | O=C(COC(=O)C1CCN(S(=O)(=O)c2cccs2)CC1)Nc1ccc(F)cc1F | 29.1 µM [rising, single point] | -2.69 | –
5 | CC(C)CCC(C)NC(=O)C1CCN(S(=O)(=O)/C=C/c2ccccc2)CC1 (centres undefined) | 0.116 µM [falling, full curve, poor fit] | 7.66 | –
6 | COc1ccc(C(=O)c2c[nH]c3ccccc23)cc1 | 0.92 µM [rising, full curve, poor fit] | -0.255 | –
7 | O=C(NCCc1c[nH]c2ccccc12)C(=O)NCC1OCCCN1S(=O)(=O)c1ccc(F)cc1 (centres undefined) | 25.9 µM [rising, partial curve] | 3.6 | –
8 | CCOC(=O)c1ccc(N2N=C(C)/C(=C/C=C/c3ccco3)C2=O)cc1 | 20.6 µM [falling, partial curve] | -28.1 | –
9 | CCc1ccccc1NC(=O)CN(C)Cc1c(O)ccc2ccccc12 | 0.092 µM [rising, full curve, poor fit] | – | –
10 | Oc1ccc(-c2cn3c(n2)SCC3)cc1O | 2.59 µM [rising, partial curve] | 10.7 | 6.51 µM [rising, single point]
11 | CC(Sc1nnnn1C)C(=O)Nc1ccc(N2CCOCC2)cc1 (centres undefined) | – | 11.4 | –
12 | COCc1cc(C)nc(SCC(=O)NCC2CCCO2)c1C#N (centres undefined) | 3.26 µM [falling, partial curve] | -15.9 | –
13 | CCN1CC(c2ccccc2)C(c2ccc(Cl)cc2)=N1 (centres undefined) | – | -30.5 | 18.4 µM [falling, single point]
14 | CCOC(=O)C1=CC[C@H]2c3c(c4ccccc4n3C)C[C@H]1N2C | 14.6 µM [falling, partial curve, poor fit] | -15.5 | –
15 | COC(=O)Cc1ccc(NC(=O)c2cccs2)cc1 | 29.1 µM [falling, partial curve, poor fit] | 3.51 | –
16 | c1csc(C(c2nnnn2C2CCCC2)N2CCOCC2)c1 (centres undefined) | – | -6.28 | –
17 | CCCCC(=O)NC(Nc1sc2c(c1C(N)=O)CCCC2)(C(=O)OCC)C(F)(F)F (centres undefined) | 13 µM [falling, partial curve] | -39.7 | 13 µM [falling, partial curve]
18 | COCCNS(=O)(=O)c1cc2[nH]c3c(c2cc1C)C(=O)CC(C)(C)C3 | 0.58 µM [rising, single point] | – | –
19 | COc1ccc(C)cc1-n1c(SCC(=O)Nc2cccc(C(=O)O)c2)nc2ccccc2c1=O | 0.326 µM [falling, partial curve, poor fit] | -10.9 | –
20 | COC(=O)C1CCN(S(=O)(=O)CCNC(=O)c2ccc3c(c2)OCO3)CC1 | 0.146 µM [rising, full curve, poor fit] | 9.22 | –

In another format: entries from further up

| Row | SMILES | AC50 [1] | cell number change [%] | AC50 [2] |
| --- | --- | --- | --- | --- |
| 11 | CC(Sc1nnnn1C)C(=O)Nc1ccc(N2CCOCC2)cc1 (centres undefined) | – | 11.4 | – |
| 12 | COCc1cc(C)nc(SCC(=O)NCC2CCCO2)c1C#N (centres undefined) | 3.26 µM [falling, partial curve] | -15.9 | – |
| 13 | CCN1CC(c2ccccc2)C(c2ccc(Cl)cc2)=N1 (centres undefined) | – | -30.5 | 18.4 µM [falling, single point] |

(continued)

Row | SMILES | AC50 [1] | cell number change [%] | AC50 [2]
21 | CC1=C(C(=O)OCc2ccccc2)C(c2ccc(N3CCOCC3)cc2)NC(=O)N1 (centres undefined) | – | -15.9 | –
22 | CCc1ccccc1N(C(C)=O)c1nc(CN=C=S)cs1 | 0.58 µM [rising, full curve, poor fit] | -44.5 | 29.1 µM [falling, single point]
23 | COc1cc2c(C(=O)N3CCN(c4cccc(Cl)c4)CC3)cn(CC(C)C)c(=O)c2cc1OC | – | – | 0.82 µM [rising, single point]
24 | CCC(=O)Oc1ccc2c(c1)O/C(=C\c1ccco1)C2=O | – | 27.7 | –
25 | O=C1CC(NS(=O)(=O)c2ccccc2)CN1c1ccc2c(c1)OCCO2 (centres undefined) | 0.651 µM [falling, single point] | -17.2 | 0.146 µM [falling, full curve, poor fit]
26 | CN(C)c1cc[n+](CC[n+]2ccc(N(C)C)cc2)cc1 | 2.91 µM [falling, partial curve, poor fit] | 30 | 1.46 µM [rising, partial curve, poor fit]
27 | COc1ccc(CCNC(=O)C(=O)NCC2CCCN2S(=O)(=O)c2ccc(OC)cc2)cc1 (centres undefined) | 5.17 µM [rising, full curve, poor fit] | 13.7 | –
28 | CCOC(=O)c1c(C)[nH]c(C(=O)N/N=C/c2ccc(Br)cc2)c1C | 5.8 µM [falling, partial curve] | -19.9 | –
29 | CN(CC(=O)N(CCO)Cc1ccccc1)S(=O)(=O)c1ccc2c(c1)c(=O)n(C)c(=O)n2C | 8.2 µM [falling, partial curve] | -3.54 | –
30 | Cc1ccccc1N1CCN(C2CCCN(C(=O)CCC(F)(F)F)C2)CC1 (centres undefined) | – | 12.4 | 0.00461 µM [rising, full curve, poor fit]
31 | COc1ccc(S(=O)(=O)CCC(=O)N2CC(=O)N(CCc3ccccc3)C(=O)C2)cc1 | 1.46 µM [falling, full curve] | 6.69 | –
32 | O=C(CN(C(=O)c1csnn1)c1ccc2c(c1)OCCO2)NCc1ccc(F)cc1 | 0.206 µM [rising, single point] | -22.9 | –
33 | O=C(NCc1cccs1)C1CCCN1C(=O)Nc1cccc(Cl)c1 (centres undefined) | 20.6 µM [falling, single point] | -27.9 | –
34 | COc1ccc(C(C)C)cc1S(=O)(=O)n1cnc(C)c1 | – | – | 2.59 µM [rising, partial curve]
35 | Cc1cc(=O)n2nc(N3CCC(C(=O)NCc4cccc(Br)c4)CC3)sc2n1 | 13 µM [rising, partial curve] | -15.3 | –
36 | NC1(N)OC(CN2C(=O)c3ccccc3C2=O)CS1 (centres undefined) | 0.651 µM [rising, full curve, poor fit] | 17.5 | –
37 | O=C(COC(=O)c1c[nH]c2ccccc12)NC1CCCC1 | – | 16 | –
38 | O=C(c1nn2c(C(F)(F)F)cc(-c3cccs3)nc2c1Br)N1CCCc2ccccc21 | 0.291 µM [rising, full curve, poor fit] | 4.93 | –
39 | Cc1ccc(C(=O)OCC(=O)N2CCC(Cc3ccccc3)CC2)cc1N | – | 11.6 | 7.31 µM [rising, partial curve, poor fit]
40 | CCOc1cc(/C=N/NC(N)=O)cc(Br)c1OCc1ccccc1F | – | -4 | –

Row | SMILES | AC50 [1] | cell number change [%] | AC50 [2]
41 | Cc1ccc(-c2nnc(Nc3ccc(CC(N)=O)cc3)c3ccccc23)cc1 | 20.6 µM [falling, single point] | -8.47 | –
42 | CC(=O)c1cccc(NC(=O)COC(=O)c2cccs2)c1 | – | 41.7 | 29.1 µM [rising, single point]
43 | O=[N+]([O-])c1cccc(/C=C/c2ccc3cccc(O)c3n2)c1 | 32.6 µM [falling, single point] | -19.7 | –
44 | COc1ccc(S(=O)(=O)N2CCCCCC2)cc1N | – | 10.9 | –
45 | COC(=O)c1ccc(C2NC(=O)c3ccccc3O2)cc1 (centres undefined) | – | 16.9 | –
46 | O=C1C=C(NCc2ccccc2)c2ccccc2C1=O | 11.6 µM [falling, partial curve, poor fit] | -46.1 | 20.6 µM [falling, single point]
47 | Cc1ccc(-n2cnnn2)c(S(=O)(=O)N2CCOCC2)c1 | 5.8 µM [falling, single point] | -12.9 | –
48 | O=C(NCCCN1CCOCC1)c1cc2cc(Br)ccc2oc1=O | 6.51 µM [falling, partial curve, poor fit] | 8.04 | –
49 | c1cnc2ccc(C(c3nnnn3C3CCCC3)N3CCSCC3)cc2c1 (centres undefined) | 0.00517 µM [falling, full curve, poor fit] | -2.94 | –
50 | O=C(CSc1nnc(N2CCCC2)n1-c1ccccc1Cl)N1CCN(c2ccccn2)CC1 | 23.1 µM [rising, single point] | 3.2 | –
51 | Cc1ccccc1C(=O)Nc1ccc(N2CCOCC2)nc1 | – | -31.6 | 32.6 µM [falling, single point]
52 | COc1ccc(NS(=O)(=O)c2ccc3c(c2)[C@H]2C=CC[C@H]2[C@@H](c2ccc(C(=O)O)cc2)N3)cc1 | 0.501 µM [rising, partial curve, poor fit] | -19.7 | –
53 | Cc1ccccc1Nc1nc(CSc2nnc(-c3ccoc3C)n2C)cs1 | 0.116 µM [rising, full curve] | -2.2 | –
54 | CCOc1ccc2nc(Cl)c(CN(C(=O)c3cnccn3)C3CCCC3)cc2c1 | – | -5.85 | –
55 | Cc1c(C)n(CC(O)CN2C(=O)c3ccccc3S2(=O)=O)c2ccccc12 (centres undefined) | – | 45.7 | 16.4 µM [rising, single point]
56 | Cc1ccc(N(C)C(=O)c2ccc3c(Cl)c4c(nc3c2)CCC4)cc1C | 0.651 µM [falling, full curve, poor fit] | -16.7 | 0.58 µM [falling, full curve, poor fit]
57 | C=CCc1cccc(CNc2nc3ccccc3n2C(C)C)c1O | 14.6 µM [falling, partial curve] | -43.9 | 32.6 µM [falling, single point]
58 | O=C(COC(=O)c1nc(Cl)ccc1Cl)Nc1ccc2c(c1)OCO2 | – | 4.92 | –
59 | COc1cc(NC(=O)CCn2c(=O)oc3ccccc32)cc(OC)c1OC | 0.58 µM [rising, single point] | 7.94 | –
60 | O=C(OCn1ncc(Br)c(Br)c1=O)c1ccc(F)cc1 | 29.1 µM [falling, single point] | -64.3 | 18.4 µM [falling, single point]
